Assay results as given in PubChem BioAssay AID720535 (National Center for Advancing Translational Sciences (NCATS), 2013).
About 420 (26%) of roughly 1,600 compounds were called active. The inconclusive results got no clear call from the source; some entries with a clear call stand among them for comparison. Calls come from the whole dose curve; as a rule, active = well fitted inhibition curve with a large enough effect; inconclusive = small, poorly fitted or top-dose-only effect; inactive = flat fitted curve, though single readings scatter. Potencies beside an inconclusive call are fits to weak or partial responses and may not hold up.

assay: qHTS for Inhibitors of TGF-b: Cytotox Counterscreen for Cherry Picks; settings: HepG2 CAGA-GFP viability, ATP luminescence, 18 h, cells stimulated with TGF-beta, 500 pg/mL; activity, negative = cytotoxicity: at 46.1 µM (top of the series); note: nearly all actives have a fitted effect of over 70% in size
In short: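 Concentration-response curves were fitted to CellTiter-Glo luminescence and classified by r2, efficacy and activity. Exposure: 18 h, 37 °C, HepG2 CAGA-GFP cells, 500 pg/mL TGF-beta.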
Potency is the fitted concentration of half-maximal effect.

| Compound | Potency | activity, negative = cytotoxicity |
| --- | --- | --- |
| CCc1ccc(CN(C)C(=O)c2cc(COc3cccc4cnccc34)on2)cc1 | inconclusive: 23.1 µM [inhibitor, single point] |  |
| Cc1ccc(N2CCN(C(=O)c3ccccc3)CC2)c(C)c1 |  | inactive: 6.65% |
| O=c1c(Br)c(Br)cnn1-c1ccccc1 | active: 8.2 µM |  |
| O=C(Oc1c(Cl)cc(Cl)c2cccnc12)c1ccco1 | inconclusive: 1.84 µM [inhibitor, partial curve] |  |
| COc1ccc(-c2csc(Nc3ccc(Oc4ccccc4)cc3)n2)cc1 |  | inactive: -13.6% |
| Cc1onc(-c2ccccc2)c1C(=O)Nc1ncc([N+](=O)[O-])s1 | inconclusive: 2.06 µM [inhibitor, full curve] |  |
| CC(=O)Nc1ccc(S(=O)(=O)N2CCN(Cc3nc4sc(C)c(C)c4c(=O)[nH]3)CC2)cc1 |  | inactive: -11% |
| O=C(Nc1cccc(Cl)c1)Nc1cc(S(=O)(=O)N2CCCCC2)ccc1Cl | inconclusive: 20.6 µM [inhibitor, single point] |  |
| CC(Oc1ccc(Cl)cc1Cl)C(=O)NC1=NN(c2ccccc2)C(=O)C1 (centres undefined) | inconclusive: 29.1 µM [inhibitor, single point] |  |
| CC(=O)Oc1ccc(-c2ccc(C(=O)Nc3cccc(S(=O)(=O)N4CCOCC4)c3)cc2)cc1 | inconclusive: 13 µM [inhibitor, partial curve] |  |
| CC(C)(C)c1ccc(Cn2c(=O)cnc3ccccc32)cc1 | inconclusive: 16.4 µM [inhibitor, partial curve] |  |
| Cc1cc(C)cc(NS(=O)(=O)c2ccc(-c3cnc(C4CC4)o3)cc2)c1 | inconclusive: 29.1 µM [inhibitor, single point] |  |
| CCOc1ccc(CCN2C(=S)N([C@@H](CC(C)C)CN3CCCC3CN3C(=S)NC[C@@H]3Cc3ccc(O)cc3)C[C@@H]2Cc2ccccc2)cc1 (some centres undefined) |  | inactive: -16.3% |
| CCN(c1ccccc1)S(=O)(=O)c1cc(C(=O)Nc2cccc(Cl)c2)ccc1F | inconclusive: 7.31 µM [inhibitor, partial curve] |  |
| CCOc1ccccc1CNS(=O)(=O)c1ccc(-c2cnc(C3CC3)o2)cc1 | inconclusive: 2.31 µM [inhibitor, partial curve] |  |
| O=S(=O)(CC(CN1CCCCC1)N1CCCCC1)c1ccc2ccccc2c1 (centres undefined) | active: 13 µM |  |
| CCOC(=O)c1c(-c2cccs2)csc1N |  | inactive: -2.29% |
| Cc1ccc(COC(=O)c2nn(C)c(=O)c3ccccc23)cc1 |  | inactive: 3.28% |
| OCC1(Cc2ccccc2)CCN(Cc2cnc(-c3ccc(Cl)cc3)nc2)CC1 | inconclusive: 9.2 µM [inhibitor, partial curve, poor fit] |  |

Single records (already shown):
CCOC(=O)c1c(-c2cccs2)csc1N reads activity, negative = cytotoxicity: inactive: -2.29%
CC(=O)Nc1ccc(S(=O)(=O)N2CCN(Cc3nc4sc(C)c(C)c4c(=O)[nH]3)CC2)cc1 reads activity, negative = cytotoxicity: inactive: -11%
